The results in this text go back to US20130150294A1.

Amino acid sequences for entries named in this document (tags omitted). A change or cut given only in a name is not applied to a line headed by its entry.
UniProt P09626: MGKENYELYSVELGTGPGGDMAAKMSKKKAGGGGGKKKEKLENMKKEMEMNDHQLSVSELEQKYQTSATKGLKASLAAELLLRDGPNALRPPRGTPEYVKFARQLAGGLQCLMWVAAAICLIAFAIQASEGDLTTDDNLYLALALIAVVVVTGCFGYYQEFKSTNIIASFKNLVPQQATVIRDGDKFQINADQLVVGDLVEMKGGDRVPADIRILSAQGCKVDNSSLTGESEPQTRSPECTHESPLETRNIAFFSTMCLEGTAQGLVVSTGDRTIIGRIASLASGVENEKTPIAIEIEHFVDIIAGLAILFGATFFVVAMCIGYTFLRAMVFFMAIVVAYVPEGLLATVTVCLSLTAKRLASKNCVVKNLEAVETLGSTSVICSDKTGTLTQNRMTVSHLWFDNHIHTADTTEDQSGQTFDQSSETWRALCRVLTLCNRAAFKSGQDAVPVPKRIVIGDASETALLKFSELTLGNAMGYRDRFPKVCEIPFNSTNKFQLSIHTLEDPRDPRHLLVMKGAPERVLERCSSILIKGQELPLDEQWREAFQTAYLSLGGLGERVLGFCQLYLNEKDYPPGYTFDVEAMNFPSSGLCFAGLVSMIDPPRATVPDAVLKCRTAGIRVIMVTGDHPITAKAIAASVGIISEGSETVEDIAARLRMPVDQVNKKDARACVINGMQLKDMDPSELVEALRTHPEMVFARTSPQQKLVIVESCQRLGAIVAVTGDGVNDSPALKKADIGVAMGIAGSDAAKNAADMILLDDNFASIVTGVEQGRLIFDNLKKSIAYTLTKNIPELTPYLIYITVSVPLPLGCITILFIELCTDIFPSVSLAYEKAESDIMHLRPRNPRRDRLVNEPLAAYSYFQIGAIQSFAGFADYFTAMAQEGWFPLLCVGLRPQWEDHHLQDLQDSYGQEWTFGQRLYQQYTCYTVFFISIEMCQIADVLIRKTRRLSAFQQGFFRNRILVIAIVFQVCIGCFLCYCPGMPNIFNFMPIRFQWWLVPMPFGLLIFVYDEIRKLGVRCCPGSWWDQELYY

The target of this experiment is Src of LLC-PK1 cells (endogenous) (pig) (UniProt K7GM45). The experiment can be described thus: GST pulldown from cell lysates, Western blot. (A western blot detects proteins with antibodies after separation by electrophoresis.)

No constants are given. Whether binding was seen depends on the method and setting. Binding seen in cells or lysates may run through a third protein. Some entries that bind do so weakly or less than the wild type.

On to “GST-H+/K+-CD3 (from UniProt P09626 348-778)”, for which the binding entry is “binds”.
